Source: PubChem BioAssay AID504793 (Drosophila RNAi Screening Center, 2011)
Assay: 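Knock-downs allowing continued mitosis even though DNA is damaged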 (primary screen). Cell system: Drosophila S2R+ cells. Reagent: long dsRNA against Drosophila genes, about 0.25 µg dsRNA per well. Time to read-out: 4 days of dsRNA, then 4 hours of drug before read-out. Challenge: doxorubicin 0.5 µM for 4 hours to cause double-strand breaks, in cells also given a low, harmless dose of dsRNA against nbs to sensitise the assay. Measured: 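Mitotic index as the number of phospho-histone H3-positive cells in each well following doxorubicin, given as raw counts without normalisation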. Reading the numbers: mitotic cells: higher = more cells in mitosis, weaker G2 arrest. Hit rule: 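a call needs confirmation in secondary tests, with other dsRNAs and a check of mitotic timing without damage, not just a high primary count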. Calls: active = confirmed in follow-up tests; inactive = not confirmed.
In all, the deposit lists about 23,000 reagents; this is a random part of those that have a named target and a result. Over the whole deposit, 62 (0.27%) were called active. 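Calls come from follow-up tests whose scores are not deposited, so confirmed genes may have low counts here; counts are not normalised per plate.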 The raw values are shown without normalisation. The numbers tell different reagents against one gene apart. Names joined by + are all predicted targets of the reagent. Reagent sequences are not shown.

| predicted target | reagent no. | mitotic cells, replicate 1 | activity call |
| --- | --- | --- | --- |
| Ercc1 | 1 | 6 | inactive |
| CG4375 | 1 | 3 | inactive |
| CG4375 | 2 | 7 | inactive |
| CG10561 | 1 | 3 | inactive |
| CG3288 | 1 | 6 | inactive |
| CG6830 | 1 | 3 | inactive |
| CG6830 | 2 | 6 | inactive |
| Rgk2 (Rad, Gem/Kir family member 2) | 1 | – | inactive |
| Rgk2 (Rad, Gem/Kir family member 2) | 2 | 16 | inactive |
| Rgk2 (Rad, Gem/Kir family member 2) | 3 | 12 | inactive |
| Rgk2 (Rad, Gem/Kir family member 2) | 4 | 10 | inactive |
| l(3)73Ah + CG32163 | 1 | 14 | inactive |
| Marcal1 | 1 | 4 | inactive |
| Or10a (Odorant receptor 10a) | 1 | 14 | inactive |
| Or10a (Odorant receptor 10a) | 2 | 5 | inactive |
| CG13998 | 1 | 4 | inactive |
| Spt3 | 1 | 11 | inactive |
| Spt3 | 2 | 3 | inactive |
| CG8701 | 1 | 3 | inactive |
| CG12219 | 1 | 7 | inactive |
| CG12219 | 2 | 6 | inactive |
| mRpS17 (mitochondrial ribosomal protein S17) | 1 | 2 | inactive |
| Lmx1a (LIM homeobox transcription factor 1 alpha) | 1 | 4 | inactive |
| Lmx1a (LIM homeobox transcription factor 1 alpha) | 2 | 6 | inactive |
| CG40282 (retired record) | 1 | 20 | inactive |
| CG9449 | 1 | 3 | inactive |
| CG9449 | 2 | 4 | inactive |
| dock (dreadlocks) | 1 | 7 | inactive |
| dock (dreadlocks) | 2 | 4 | inactive |
| Tip60 (Tat interactive protein 60kDa) | 1 | 8 | inactive |
| GlcAT-P (Glucuronyltransferase P) | 1 | 3 | inactive |
| GlcAT-P (Glucuronyltransferase P) | 2 | 3 | inactive |
| fs(1)N (female sterile (1) Nasrat) | 1 | 10 | inactive |
| Oseg6 (Outer segment 6) | 1 | 11 | inactive |
| CG15743 | 1 | 8 | inactive |
| CG15743 | 2 | 5 | inactive |
| CG7631 | 1 | 10 | inactive |
| stwl (stonewall) | 1 | 14 | inactive |
| stwl (stonewall) | 2 | 12 | inactive |
| CG4836 | 1 | 4 | inactive |
| CG4836 | 2 | 4 | inactive |
| CG11052 | 1 | 3 | inactive |
| Mco3 (Multicopper oxidase 3) | 1 | 10 | inactive |
| 7SLRNA:CR42652 + 7SLRNA:CR32864 | 1 | 12 | inactive |
| CG12480 | 1 | 15 | inactive |
| CG12480 | 2 | 7 | inactive |
| Qsox1 (Quiescin sulfhydryl oxidase 1) | 1 | 3 | inactive |
| Qsox1 (Quiescin sulfhydryl oxidase 1) | 2 | 4 | inactive |
| PIG-B (Phosphatidylinositol glycan anchor biosynthesis class B) | 1 | 14 | inactive |
| PIG-B (Phosphatidylinositol glycan anchor biosynthesis class B) | 2 | 6 | inactive |
| GatA (Glutamyl-tRNA amidotransferase, subunit A) | 1 | 10 | inactive |
| CG8562 | 1 | 2 | inactive |
| CG8562 | 2 | 3 | inactive |
| Saf6 (SAGA factor-like TAF6) | 1 | 2 | inactive |
| ap (apterous) | 1 | 8 | inactive |
| CG10801 | 1 | 12 | inactive |
| CG12446 | 1 | 6 | inactive |
| Scm (Sex comb on midleg) | 1 | 2 | inactive |
| CG32793 | 1 | 15 | inactive |
| CG32793 | 2 | 14 | inactive |
| CG32793 | 3 | 11 | inactive |
| RpL37A (Ribosomal protein L37A) | 1 | 7 | inactive |
| RpL37A (Ribosomal protein L37A) | 2 | 12 | inactive |
| 5-HT7 (5-hydroxytryptamine (serotonin) receptor 7) | 1 | 4 | inactive |
| 5-HT7 (5-hydroxytryptamine (serotonin) receptor 7) | 2 | 5 | inactive |
| CG14759 | 1 | 6 | inactive |
| tutl (turtle) | 1 | 1 | inactive |
| tutl (turtle) | 2 | 8 | inactive |
| tutl (turtle) | 3 | 2 | inactive |
| tutl (turtle) | 4 | 10 | inactive |
| NdufA3 (NADH:ubiquinone oxidoreductase subunit A3) | 1 | 16 | inactive |
| CG7557 | 1 | 9 | inactive |
| CG7557 | 2 | 6 | inactive |
| Bbd (Bombardier) | 1 | 8 | inactive |
| Taf2 (TBP-associated factor 2) | 1 | 7 | inactive |
| Taf2 (TBP-associated factor 2) | 2 | 10 | inactive |

Sorted by “mitotic cells, replicate 1” (high to low): 10 of the entries above.
| predicted target | reagent no. | mitotic cells, replicate 1 | activity call |
| --- | --- | --- | --- |
| Or10a (Odorant receptor 10a) | 1 | 14 | inactive |
| Spt3 | 1 | 11 | inactive |
| CG12219 | 1 | 7 | inactive |
| CG12219 | 2 | 6 | inactive |
| Or10a (Odorant receptor 10a) | 2 | 5 | inactive |
| Marcal1 | 1 | 4 | inactive |
| CG13998 | 1 | 4 | inactive |
| Spt3 | 2 | 3 | inactive |
| CG8701 | 1 | 3 | inactive |
| mRpS17 (mitochondrial ribosomal protein S17) | 1 | 2 | inactive |
